Reference: publication doi:10.1101/2025.01.13.632879
These are yes or no findings as the source states them, for the method shown.

Biological target: Escherichia coli LolA (wild type) (Escherichia coli) (UniProt P61316)
Test: SEC

B1: Escherichia coli LolA (wild type) (protein, UniProt P61316 22-203)
chain: DAASDLKSRLDKVSSFHASFTQKVTDGSGAAVQEGQGDLWVKRPNLFNWHMTQPDESILVSDGKTLWFYNPFVEQATATWLKDATGNTPFMLIARNQSSDWQQYNIKQNGDDFVLTPKASNGNLKQFTINVGRDGTIHQFSAVEQDDQRSSYQLKSQQNGAVDAAKFTFTPPQGVTVDDQRK
In the case of B1, the binding is reported as “no binding (tested: 10 mg/mL loaded)”.
